These are yes or no findings as the source states them, for the method shown. Some entries that bind do so weakly or less than the wild type.
Legend:
[1] = molecular target: mouse PD-1 (mPD-1) (mouse) (UniProt Q02242); assay: ELISA, mPD-1 coated on plate, fusion protein titrated
[2] = molecular target: human PD-1 (hPD-1) (human) (UniProt Q15116); assay: SPR (Proteon XPR36), hPD-1 coated on GLC chip, analyte at 50-1000 nM

Amino acid sequences for entries named in this document (tags omitted). Residues count along the entry.
UniProt Q02242, residues 25-169: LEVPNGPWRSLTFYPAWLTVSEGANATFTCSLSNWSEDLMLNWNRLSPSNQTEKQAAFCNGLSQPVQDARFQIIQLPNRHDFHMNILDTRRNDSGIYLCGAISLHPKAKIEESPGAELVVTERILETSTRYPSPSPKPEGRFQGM
UniProt Q15116, residues 25-167: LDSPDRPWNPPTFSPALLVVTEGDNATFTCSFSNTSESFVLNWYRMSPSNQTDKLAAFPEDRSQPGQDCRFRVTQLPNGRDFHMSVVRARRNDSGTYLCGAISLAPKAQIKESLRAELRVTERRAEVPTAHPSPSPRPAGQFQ

B1: hPD-L1 (V,19-133)-hyFcM1 (Fc fusion)
chain: FTVTVPKDLYVVEYGSNMTIECKFPVEKQLDLAALIVYWEMEDKNIIQFVHGEEDLKVQHSSYRQRARLLKDQLSLGNAALQITDVKLQDAGVYRCMISYGGADYKRITVKVNAPRNTGRGGEEKKGGKEKEEQEERETKTPECPSHTQPLGVFLFPPKPKDTLMISRTPEVTCVVVDVSQEDPEVQFNWYVDGVEVHNAKTKPREEQFNSTYRVVSVLTVLHQDWLNGKEYKCKVSNKGLPSSIEKTISKAKGQPREPQVYTLPPSQEEMTKNQVSLTCLVKGFYPSDIAVEWESNGQPENNYKTTPPVLDSDGSFFLYSRLTVDKSRWQEGNVFSCSVMHEALHNHYTQKSLSLSLGK
binding [1]: binds
binding [2]: binds
